These are yes or no findings as the source states them, for the method shown. Binding seen in cells or lysates may run through a third protein. Some binding calls cover weakened binding; strength is not graded here.
Assays:
Experiment in all cases: cross-linking + pull-down; 10 µM biotinylated diazirine peptide probe incubated with HEK293T nuclear lysate (0.5 mg/mL) at 4 °C for 1 h, 365 nm UV 30 min on ice, proteins precipitated and dissolved in 1% SDS PBS, streptavidin agarose, western blot; only the target purified
H4K5me2 (probe 7) = target: T1, H4K5me2 (probe 7)
T1 sequence (peptide, photo-arginine R(dz) at 3; dimethyl-lysine at 5; K(biotin) at 15): SGRGKGGKGLGKGGK

Protein sequences, listed by entry. Tags and fused reporters are not part of them.
UniProt Q969R5: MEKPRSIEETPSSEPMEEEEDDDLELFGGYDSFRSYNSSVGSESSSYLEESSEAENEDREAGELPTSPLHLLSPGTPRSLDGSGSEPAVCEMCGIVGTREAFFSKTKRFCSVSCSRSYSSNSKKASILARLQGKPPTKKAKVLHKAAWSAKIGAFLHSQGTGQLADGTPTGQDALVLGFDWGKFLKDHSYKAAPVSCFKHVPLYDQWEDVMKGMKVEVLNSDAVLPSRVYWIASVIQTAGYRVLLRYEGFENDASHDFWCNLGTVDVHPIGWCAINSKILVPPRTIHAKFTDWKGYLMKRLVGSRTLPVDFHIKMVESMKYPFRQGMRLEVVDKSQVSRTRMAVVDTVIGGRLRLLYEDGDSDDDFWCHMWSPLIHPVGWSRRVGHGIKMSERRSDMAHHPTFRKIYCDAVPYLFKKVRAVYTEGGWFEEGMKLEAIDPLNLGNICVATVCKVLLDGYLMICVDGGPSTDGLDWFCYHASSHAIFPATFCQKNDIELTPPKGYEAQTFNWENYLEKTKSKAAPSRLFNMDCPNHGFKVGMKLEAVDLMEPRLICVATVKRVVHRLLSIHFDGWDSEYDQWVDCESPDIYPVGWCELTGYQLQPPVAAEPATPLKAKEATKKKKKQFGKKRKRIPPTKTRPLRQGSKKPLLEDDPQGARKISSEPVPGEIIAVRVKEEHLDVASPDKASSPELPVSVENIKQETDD
UniProt Q09028: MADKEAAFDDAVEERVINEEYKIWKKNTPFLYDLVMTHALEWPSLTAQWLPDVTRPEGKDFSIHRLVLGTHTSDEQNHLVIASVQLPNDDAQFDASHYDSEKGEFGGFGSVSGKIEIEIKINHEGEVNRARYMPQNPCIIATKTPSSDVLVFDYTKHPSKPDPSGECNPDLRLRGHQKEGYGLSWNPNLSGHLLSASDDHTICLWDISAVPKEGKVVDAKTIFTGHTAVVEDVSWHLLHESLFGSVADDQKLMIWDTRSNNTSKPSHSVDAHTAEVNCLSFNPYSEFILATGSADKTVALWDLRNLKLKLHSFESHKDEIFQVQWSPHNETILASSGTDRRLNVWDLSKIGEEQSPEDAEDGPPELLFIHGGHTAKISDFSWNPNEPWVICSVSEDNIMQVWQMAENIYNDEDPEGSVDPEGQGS

H4K5me (probe 6) = target: T2, H4K5me (probe 6)
T2 sequence (peptide, photo-arginine R(dz) at 3; monomethyl-lysine at 5; K(biotin) at 15): SGRGKGGKGLGKGGK

H3K4‐R2dz (probe 1) = target: T3, H3K4‐R2dz (probe 1)
T3 sequence (peptide, photo-arginine R(dz) at 2; K(biotin) at 14): ARTKQTARKSTGGKA

Row | binding (H3K4‐R2dz (probe 1)) | Substance | binding (H4K5me2 (probe 7)) | binding (H4K5me (probe 6))
1 |  | Lethal(3)malignant brain tumor‐like protein 2 (L3MBTL2) (from UniProt Q969R5 1-705) | binds | binds
2 | binds | Retinoblastoma binding protein 4 (RBBP4), endogenous (from UniProt Q09028 1-425) |  | 

Source: PMC11005723, “Development of Complementary Photo‐arginine/lysine to Promote Discovery of Arg/Lys hPTMs Interactomes” (Advanced Science, 2024)
